Sequences and labels used below:
T1: CAT2 (peroxisomal catalase), yeast two-hybrid fusion (A. thaliana) (UniProt P25819)
T1 sequence: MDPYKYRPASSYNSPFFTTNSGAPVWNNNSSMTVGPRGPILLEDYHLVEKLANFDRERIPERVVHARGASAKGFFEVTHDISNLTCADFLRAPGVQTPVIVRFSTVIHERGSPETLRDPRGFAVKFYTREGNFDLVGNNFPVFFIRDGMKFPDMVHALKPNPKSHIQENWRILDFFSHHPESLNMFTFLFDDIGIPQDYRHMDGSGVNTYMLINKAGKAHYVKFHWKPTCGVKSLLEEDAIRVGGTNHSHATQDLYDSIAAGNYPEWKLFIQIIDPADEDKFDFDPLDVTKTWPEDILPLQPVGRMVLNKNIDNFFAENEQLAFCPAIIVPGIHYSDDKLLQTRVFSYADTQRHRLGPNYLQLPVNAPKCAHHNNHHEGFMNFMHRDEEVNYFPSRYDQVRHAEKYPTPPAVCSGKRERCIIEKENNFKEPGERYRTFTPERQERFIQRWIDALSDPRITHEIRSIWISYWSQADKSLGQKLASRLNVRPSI

T2: LSU1 (RESPONSE TO LOW SULFUR 1), yeast two-hybrid fusion (A. thaliana) (UniProt Q9SCK1)
T2 sequence: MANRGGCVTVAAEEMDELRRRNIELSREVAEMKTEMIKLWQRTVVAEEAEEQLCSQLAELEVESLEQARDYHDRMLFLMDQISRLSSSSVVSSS

T3: LSU2 (RESPONSE TO LOW SULFUR 2), yeast two-hybrid fusion (A. thaliana) (UniProt Q9FIR9)
T3 sequence: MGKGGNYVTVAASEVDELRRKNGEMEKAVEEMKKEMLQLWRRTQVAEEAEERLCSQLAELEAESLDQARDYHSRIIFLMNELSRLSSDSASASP

T4: LSU3 (RESPONSE TO LOW SULFUR 3), yeast two-hybrid fusion (A. thaliana) (UniProt Q9SCK2)
T4 sequence: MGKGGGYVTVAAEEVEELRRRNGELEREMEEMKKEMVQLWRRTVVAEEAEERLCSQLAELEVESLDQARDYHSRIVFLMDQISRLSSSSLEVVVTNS

T5: LSU4 (RESPONSE TO LOW SULFUR 4), yeast two-hybrid fusion (A. thaliana) (UniProt Q8L8S2)
T5 sequence: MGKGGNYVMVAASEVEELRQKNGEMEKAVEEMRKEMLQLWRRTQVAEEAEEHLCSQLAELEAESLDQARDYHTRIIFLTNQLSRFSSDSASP

T6: NBR1 (selective autophagy cargo receptor), yeast two-hybrid fusion (A. thaliana) (UniProt Q9SB64)
T6 sequence: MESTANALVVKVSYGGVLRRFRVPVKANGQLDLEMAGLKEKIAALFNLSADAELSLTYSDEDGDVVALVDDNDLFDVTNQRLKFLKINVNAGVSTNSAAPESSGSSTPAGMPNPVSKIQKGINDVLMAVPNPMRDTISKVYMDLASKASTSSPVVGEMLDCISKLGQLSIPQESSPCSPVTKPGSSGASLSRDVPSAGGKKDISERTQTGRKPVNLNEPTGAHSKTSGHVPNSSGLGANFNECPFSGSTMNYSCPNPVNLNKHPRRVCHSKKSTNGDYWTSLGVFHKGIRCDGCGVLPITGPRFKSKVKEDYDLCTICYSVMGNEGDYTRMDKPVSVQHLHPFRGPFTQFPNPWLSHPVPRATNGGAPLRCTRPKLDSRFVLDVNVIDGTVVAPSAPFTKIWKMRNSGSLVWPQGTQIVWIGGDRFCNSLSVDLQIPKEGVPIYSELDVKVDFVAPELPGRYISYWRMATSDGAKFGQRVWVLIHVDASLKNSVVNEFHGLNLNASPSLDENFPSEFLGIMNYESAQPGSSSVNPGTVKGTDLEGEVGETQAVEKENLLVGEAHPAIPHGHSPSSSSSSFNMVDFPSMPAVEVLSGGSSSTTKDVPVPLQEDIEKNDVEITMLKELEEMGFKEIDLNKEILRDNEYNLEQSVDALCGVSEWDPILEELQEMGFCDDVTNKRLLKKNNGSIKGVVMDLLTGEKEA

T7: RAF2/SDIRIP1, yeast two-hybrid fusion (A. thaliana) (UniProt Q9LU63)
T7 sequence: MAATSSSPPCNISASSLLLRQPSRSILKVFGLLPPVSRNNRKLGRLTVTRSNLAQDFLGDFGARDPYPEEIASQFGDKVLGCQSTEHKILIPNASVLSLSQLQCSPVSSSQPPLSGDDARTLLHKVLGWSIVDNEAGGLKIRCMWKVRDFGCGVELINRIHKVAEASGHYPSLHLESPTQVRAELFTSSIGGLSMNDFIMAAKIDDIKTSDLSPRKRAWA

B1: LSU1 (RESPONSE TO LOW SULFUR 1), yeast two-hybrid fusion (protein, UniProt Q9SCK1 1-94)
chain: T2 sequence
B2: LSU1 C54E, yeast two-hybrid fusion (protein, UniProt Q9SCK1 1-94)
chain: T2 sequence with C54E
B3: LSU1 C54R, yeast two-hybrid fusion (protein, UniProt Q9SCK1 1-94)
chain: T2 sequence with C54R
B4: LSU1 L60A, yeast two-hybrid fusion (protein, UniProt Q9SCK1 1-94)
chain: T2 sequence with L60A
B5: LSU1 C54A, yeast two-hybrid fusion (protein, UniProt Q9SCK1 1-94)
chain: T2 sequence with C54A
B6: LSU4 (RESPONSE TO LOW SULFUR 4), yeast two-hybrid fusion (protein, UniProt Q8L8S2 1-92)
chain: T5 sequence

Numbering of substitutions follows the chain as printed. In names and notes the source's numbering stands. Results are given in words; binding and its absence hold for the method and conditions named. Some binding calls cover weakened binding; strength is not graded here. Sequences can lack the tags named with a protein.

One test has as its target T1, CAT2 (peroxisomal catalase), yeast two-hybrid fusion (A. thaliana). The test can be described thus: two-hybrid; Yeast Y2HGold or PJ69-4a; pDEST22 (GAL4 AD) and pDEST32 (GAL4 BD); growth on -LTH + 3 mM or 5 mM 3-AT or on -LTA; 30°C, or room temperature for longer exposures.
For B1, the binding result is on record as “binds”.
On to B2, for which the binding result was “binds weakly”.
The same measure, in the same setting: next, B3: “binds”; B4: “binds”; B5: “binds”.

The target of a further test is T2, LSU1 (RESPONSE TO LOW SULFUR 1), yeast two-hybrid fusion (A. thaliana). The test is described as above.
For B6, the binding entry is listed as “binds weakly”.
As to B1, the binding result was “binds”.
The same measure, in the same setting: next, B2: “binds”; B3: “binds”; B4: “binds”.
For B5, the binding result is on record as “binds”.

The target of a further test is LSU1 C54A, yeast two-hybrid fusion (A. thaliana) (UniProt Q9SCK1). Described as above.
Take B5: the binding result is “binds”.

The next test has as its target LSU1 C54E, yeast two-hybrid fusion (A. thaliana) (UniProt Q9SCK1). The description is as above.
On to B2, for which the binding entry is on record as “binds”.

A further test concerns the target LSU1 C54R, yeast two-hybrid fusion (A. thaliana) (UniProt Q9SCK1). Described as above.
With B3, the binding entry is given as “binds”.

A further test addresses LSU1 L60A, yeast two-hybrid fusion (A. thaliana) (UniProt Q9SCK1). The description is as above.
On to B4, for which the binding result is recorded as “binds”.

The next test addresses T3, LSU2 (RESPONSE TO LOW SULFUR 2), yeast two-hybrid fusion (A. thaliana). The test is described as above.
With B1, the binding result is “binds”.
Take B2: the binding result is recorded as “binds”.
Still for that read-out and setting: next, B3: “binds”; B4: “binds”; B5: “binds”.

For a further test, the target named is T4, LSU3 (RESPONSE TO LOW SULFUR 3), yeast two-hybrid fusion (A. thaliana). The description is as above.
Take B6: the binding entry is “binds weakly”.
For the molecule B1, the binding entry was “binds”.

The target of a further test is T5, LSU4 (RESPONSE TO LOW SULFUR 4), yeast two-hybrid fusion (A. thaliana). The description is as above.
With B1, the binding result is listed as “binds weakly”.

The next test concerns the target T6, NBR1 (selective autophagy cargo receptor), yeast two-hybrid fusion (A. thaliana). Described as above.
Regarding B6, the binding entry is on record as “binds weakly”.
As for B1, the binding result is on record as “binds”.
Take B2: the binding result is “binds”.
Still for that read-out and setting: under B3 stands “binds”.
Consider B5, for which the binding result was “binds”.

A further test addresses T7, RAF2/SDIRIP1, yeast two-hybrid fusion (A. thaliana). Described as above.
With B1, the binding result is “binds”.
With B2, the binding entry is recorded as “binds”.
In the case of B3, the binding result was “binds”.
Take B4: the binding entry is given as “binds”.
Still for that read-out and setting: next, B5: “binds”.
